Experimental data: PubChem BioAssay AID743121 (NCATS, 2013)

Test: 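Partners whose loss is lethal together with topoisomerase I blockade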 (primary screen)
Cell system: MDA-MB-231 cells, a human breast cancer line
Reagent: single siRNA against human genes, 20 nM siRNA (0.8 pmol per well)
Time to read-out: 120 h (drug added 48 h after transfection, read 72 h later)
Treatment: camptothecin 20 nM (about EC30) for 72 h; vehicle 0.1% DMSO in parallel plates
Measured: 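Cell viability by ATP luminescence (CellTiter-Glo) as % of non-targeting siRNA wells, and the log2 ratio of viability without drug over viability with camptothecin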
Reading the numbers: log2 vehicle/camptothecin viability: higher = stronger sensitisation to camptothecin; viability with camptothecin: higher = more viable cells
Call rule: 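Each gene scored by redundant siRNA activity (RSA) over its individual siRNA ratios; a gene is called active at p < 0.001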
Shown is a random part of about 26,000 reagents tested. 167 of all reagents (0.63%) were called active. 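Calls are per gene from RSA p-values that are not deposited; an individual active-marked siRNA can sensitise only weakly.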 The numbers tell different reagents against one gene apart. Further read-outs or replicates are left out here.

Target gene | reagent no. | log2 vehicle/camptothecin viability | viability with camptothecin (% of control) | call
MORC1 | 1 | -0.123 | 134 | inactive
MORC1 | 2 | -0.133 | 82.1 | inactive
MORC1 | 3 | 0.0107 | 81.9 | inactive
KCNA6 | 1 | -0.733 | 99.6 | inactive
KCNA6 | 2 | -0.0262 | 82.3 | inactive
KCNA6 | 3 | -0.235 | 86 | inactive
ACAD11 | 1 | 0.0284 | 101 | inactive
ACAD11 | 2 | -0.275 | 85.5 | inactive
ACAD11 | 3 | 0.0988 | 88.6 | inactive
ACAD11 | 4 | 0.477 | 53.3 | inactive
BAGE4 | 1 | -0.555 | 121 | inactive
BAGE4 | 2 | -0.307 | 88.4 | inactive
WWTR1 | 1 | -0.314 | 98.3 | inactive
WWTR1 | 2 | -0.584 | 97.6 | inactive
WWTR1 | 3 | -0.116 | 53.1 | inactive
SMURF1 | 1 | -0.205 | 93.6 | inactive
SMURF1 | 2 | -0.132 | 65.5 | inactive
SMURF1 | 3 | 0.0678 | 90.7 | inactive
SMURF1 | 4 | 0.0159 | 80.7 | inactive
TMBIM6 | 1 | 0.0403 | 89.5 | inactive
TMBIM6 | 2 | -0.287 | 124 | inactive
TMBIM6 | 3 | -0.142 | 108 | inactive
TMBIM6 | 4 | 0.0812 | 46.8 | inactive
TRAT1 | 1 | -0.186 | 107 | inactive
TRAT1 | 2 | -0.33 | 35.1 | inactive
TRAT1 | 3 | 0.136 | 71.8 | inactive
TRAT1 | 4 | -0.983 | 58.8 | inactive
DUSP10 | 1 | -0.103 | 99.8 | inactive
DUSP10 | 2 | -0.334 | 26.6 | inactive
DUSP10 | 3 | -0.409 | 40.9 | inactive
DUSP10 | 4 | -0.0286 | 83.9 | inactive
WARS2 | 1 | -0.374 | 68.5 | inactive
WARS2 | 2 | -0.0627 | 96.4 | inactive
WARS2 | 3 | -0.0973 | 45.7 | inactive
WARS2 | 4 | 0.00295 | 88.3 | inactive
IL1R1 | 1 | 0.32 | 43.7 | inactive
IL1R1 | 2 | 0.639 | 62 | inactive
IL1R1 | 3 | -0.124 | 97.3 | inactive
MUC1 | 1 | -0.24 | 63.4 | inactive
MUC1 | 2 | -0.0932 | 34.6 | inactive
MUC1 | 3 | -0.245 | 79.2 | inactive
MUC1 | 4 | -0.359 | 67.1 | inactive
ENDOD1 | 1 | -0.158 | 91.2 | inactive
ENDOD1 | 2 | 0.109 | 89 | inactive
ENDOD1 | 3 | 0.586 | 80.3 | inactive
MIPEP | 1 | 0.142 | 61.4 | inactive
MIPEP | 2 | 0.266 | 96.8 | inactive
MIPEP | 3 | 0.672 | 22.9 | inactive
MIPEP | 4 | -0.182 | 85.1 | inactive
SREBF1 | 1 | -0.447 | 112 | inactive
SREBF1 | 2 | 0.459 | 50.7 | inactive
SREBF1 | 3 | -0.505 | 66.8 | inactive
SREBF1 | 4 | 0.281 | 40 | inactive
PRMT8 | 1 | 0.535 | 61.1 | inactive
PRMT8 | 2 | 0.00517 | 100 | inactive
PRMT8 | 3 | -0.454 | 71.1 | inactive
PRMT8 | 4 | -0.0404 | 101 | inactive
TAAR6 | 1 | -0.0941 | 52.9 | inactive
TAAR6 | 2 | -0.348 | 99 | inactive
TAAR6 | 3 | -0.131 | 71.7 | inactive
TAAR6 | 4 | 0.0154 | 69.5 | inactive
CXXC1 | 1 | -0.111 | 59.6 | inactive
CXXC1 | 2 | -0.177 | 114 | inactive
CXXC1 | 3 | 0.662 | 10.9 | inactive
HDAC4 | 1 | -0.365 | 65.4 | inactive
HDAC4 | 2 | -0.25 | 101 | inactive
HDAC4 | 3 | -0.0338 | 86.8 | inactive
HDAC4 | 4 | -0.333 | 97.1 | inactive

Copied from the list.
WWTR1 #3, call: inactive
For “log2 vehicle/camptothecin viability”, PRMT8 #4 shows -0.0404
Value for BAGE4 #1 in “viability with camptothecin (% of control)”: 121
Under “log2 vehicle/camptothecin viability”, TAAR6 #3 is entered as -0.131
TRAT1 #3, call = inactive
TAAR6 #4, log2 vehicle/camptothecin viability = 0.0154
